PubChem BioAssay AID652272 | Drosophila RNAi Screening Center, 2013
The screen tested about 21,000 reagents; shown is a random part of those that have a named target and a result. Over the whole deposit, 503 (2.4%) got an active call. 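Raw plate light values, not normalised; calls rest on replicate z-scores that were not deposited; hits include reporter decreases as well as increases.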 A number with no mark means an inactive call. Reagents against one gene are numbered here. The record does not give: the amount of reagent, the time to read-out.

Assay: 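Finding fly genes that regulate Hedgehog signal transduction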 (primary screen)
Cells: Drosophila clone 8 (Cl8) cells
Knock-down reagent: long dsRNA against Drosophila genes
Detection: 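Plate reader light from a firefly reporter under a ptc promoter fragment that responds to Hedgehog, with Renilla light as transfection reference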
Direction: firefly Hh reporter signal: higher = more ptc reporter light; Renilla reference signal: higher = more Renilla control light
Hit rule: 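Called a hit if the two-replicate mean z-score lies below -2 or above +3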
Meaning of the calls: active = hit: reporter lowered or raised; inactive = not a hit

CG33919 (GeneID 3772720)
- firefly Hh reporter signal, replicate 1: 1.77e5
- firefly Hh reporter signal, replicate 2: 2.95e5
- Renilla reference signal, replicate 1: 4816
- Renilla reference signal, replicate 2: 12504

ckd (GeneID 38402)
- firefly Hh reporter signal, replicate 1: 1.29e5
- firefly Hh reporter signal, replicate 2: 74145
- Renilla reference signal, replicate 1: 4701
- Renilla reference signal, replicate 2: 5440

CG10802 (GeneID 31318)
- firefly Hh reporter signal, replicate 1: 2.04e5
- firefly Hh reporter signal, replicate 2: 1.28e5
- Renilla reference signal, replicate 1: 4544
- Renilla reference signal, replicate 2: 4692

CG9117 (GeneID 33846)
- firefly Hh reporter signal, replicate 1: 88115
- firefly Hh reporter signal, replicate 2: 58400
- Renilla reference signal, replicate 1: 2588
- Renilla reference signal, replicate 2: 5386

CG42816 (GeneID 39977)
- firefly Hh reporter signal, replicate 1: 94835
- Renilla reference signal, replicate 1: 4256
- Renilla reference signal, replicate 2: 2708

eEFSec (GeneID 37444)
- firefly Hh reporter signal, replicate 1: 65322
- firefly Hh reporter signal, replicate 2: 57995
- Renilla reference signal, replicate 1: 2032
- Renilla reference signal, replicate 2: 4944

tank (GeneID 33684)
- firefly Hh reporter signal, replicate 1: 1.00e5
- firefly Hh reporter signal, replicate 2: 56523
- Renilla reference signal, replicate 1: 2755
- Renilla reference signal, replicate 2: 5083

Acp65Aa (GeneID 38710)
- firefly Hh reporter signal, replicate 1: 36909
- firefly Hh reporter signal, replicate 2: 59511
- Renilla reference signal, replicate 1: 4411
- Renilla reference signal, replicate 2: 4150

Marf1 (GeneID 49895) #1
- firefly Hh reporter signal, replicate 1: 74119
- firefly Hh reporter signal, replicate 2: 65595
- Renilla reference signal, replicate 1: 2149
- Renilla reference signal, replicate 2: 6305

Marf1 (GeneID 49895) #2
- firefly Hh reporter signal, replicate 1: 1.02e5
- firefly Hh reporter signal, replicate 2: 2.32e5
- Renilla reference signal, replicate 1: 2657
- Renilla reference signal, replicate 2: 9605

CG31460 (GeneID 318747)
- firefly Hh reporter signal, replicate 1: 82787
- firefly Hh reporter signal, replicate 2: 57708
- Renilla reference signal, replicate 1: 3476
- Renilla reference signal, replicate 2: 2464

omd (GeneID 41674)
- firefly Hh reporter signal, replicate 1: 1.44e5
- firefly Hh reporter signal, replicate 2: 90040
- Renilla reference signal, replicate 1: 5106
- Renilla reference signal, replicate 2: 3504

CG9498 (GeneID 33885)
- firefly Hh reporter signal, replicate 1: 1.21e5
- firefly Hh reporter signal, replicate 2: 38864
- Renilla reference signal, replicate 1: 2640
- Renilla reference signal, replicate 2: 3296

CG5966 (GeneID 31532)
- firefly Hh reporter signal, replicate 1: 98359
- firefly Hh reporter signal, replicate 2: 89708
- Renilla reference signal, replicate 1: 2396
- Renilla reference signal, replicate 2: 1824
